In patent publication US9993536B2, “Peptides and combination of peptides and scaffolds for use in immunotherapy against renal cell carcinoma (RCC) and other cancers” (immatics biotechnologies GmbH, priority 2015, dated 2018):

What was measured:
[1] = tested on: RCC samples; experiment: Label-free relative LC-MS quantitation of HLA-presented peptides (presentation profile/score), RCC vs normal tissues; parameters: species or system human; key: very highly over-presented on tumors compared to a panel of normal tissues (+++); highly over-presented on tumors compared to a panel of normal tissues (++); over-presented on tumors compared to a panel of normal tissues (+); details: tumors (RCC) compared to a panel of normal tissues
[2] = tested on: tumor samples of other tumor types; experiment: LC-MS detection/over-presentation of peptides on additional tumor types vs normal tissues; parameters: species or system human; details: for Additional Entities: additional tumor types: over-presentation on more than 5% of measured tumor samples, or presentation on more than 5% with ratio of geometric means tumor vs normal larger than 3; for Other relevant organs/diseases: additional tumor types: over-presented on more than 5% of measured tumor samples, or presented on more than 5% with ratio of geometric means tumor vs normal tissues larger than 3; for cancer tissues with peptide presentation (number of samples) / peptide was also found on (other cancers, not shown) / normal tissues with peptide presentation (number of samples): FIG. 1 legend; for cancer tissues with peptide presentation (number of samples) / normal tissues with peptide presentation (number of samples): samples without peptide presentation are not shown

74 (GLFHKQVTV; listed as Homo sapiens) [compound 74]
Peptide Presentation (presentation score) [1]: +

77 (SLIKHKIML; listed as Homo sapiens) [compound 77]
Peptide Presentation (presentation score) [1]: ++
Additional Entities [2]: CRC, Melanoma, Uterine Cancer

14 (ALLTETIFL; listed as Homo sapiens) [compound 14]
Peptide Presentation (presentation score) [1]: ++
Additional Entities [2]: NHL
Other relevant organs/diseases [2]: Leukocytes

92 (FLFRDILEL; listed as Homo sapiens) [compound 92]
Peptide Presentation (presentation score) [1]: +++
Additional Entities [2]: Melanoma, AML

42 (VILDTGTIQL; listed as Homo sapiens) [compound 42]
Peptide Presentation (presentation score) [1]: +++

97 (TLISELVQA; listed as Homo sapiens) [compound 97]
Peptide Presentation (presentation score) [1]: +
Additional Entities [2]: SCLC, GC, HCC, CLL, Urinary bladder cancer, Uterine Cancer, Gallbladder Cancer, Bile Duct Cancer, NHL
Other relevant organs/diseases [2]: Lung, Colon, Rectum, Pancreas, Prostate, Breast, Melanoma, Ovary, Esophagus

27 (SLSDLLVSL; listed as Homo sapiens) [compound 27]
Peptide Presentation (presentation score) [1]: ++
Additional Entities [2]: CRC, Melanoma, Uterine Cancer, AML, NHL
Other relevant organs/diseases [2]: Lung, Liver, Pancreas, Leukocytes

83 (IQWSIVPEV; listed as Homo sapiens) [compound 83]
Peptide Presentation (presentation score) [1]: ++
Additional Entities [2]: CLL, Melanoma, Gallbladder Cancer, Bile Duct Cancer, AML, NHL

88 (TLAELHISL; listed as Homo sapiens) [compound 88]
Peptide Presentation (presentation score) [1]: +
Additional Entities [2]: CLL, Esophageal Cancer
Other relevant organs/diseases [2]: Ovary

96 (TLAETLVNL; listed as Homo sapiens) [compound 96]
Peptide Presentation (presentation score) [1]: +
Additional Entities [2]: SCLC, HCC, CLL, Melanoma, Urinary bladder cancer, Uterine Cancer, Gallbladder Cancer, Bile Duct Cancer, AML, NHL
Other relevant organs/diseases [2]: Lung, Stomach, Colon, Rectum, Pancreas, Prostate, Breast, Ovary, Esophagus

81 (SLLPALPKL; listed as Homo sapiens) [compound 81]
Additional Entities [2]: BRCA

150 (TLMPNINKL; listed as Homo sapiens) [compound 150]
Peptide Presentation (presentation score) [1]: +++
Other relevant organs/diseases [2]: Liver

41 (GLLKTLQKL; listed as Homo sapiens) [compound 41]
Peptide Presentation (presentation score) [1]: +

SEQ ID NO.: 15 (ILIKHLVKV; listed as Homo sapiens)
cancer tissues with peptide presentation (number of samples) [2]: 17

151 (YMYEGPAPRI; listed as Homo sapiens) [compound 151]
Peptide Presentation (presentation score) [1]: +++

46 (GLSEVLVQI; listed as Homo sapiens) [compound 46]
Additional Entities [2]: SCLC, HCC, Melanoma, Urinary bladder cancer, Gallbladder Cancer, Bile Duct Cancer, NHL
Other relevant organs/diseases [2]: Colon, Rectum

3 (RLLGEVQAL; listed as Homo sapiens) [compound 3]
Peptide Presentation (presentation score) [1]: +++

59 (SLKNNVVSV; listed as Homo sapiens) [compound 59]
Additional Entities [2]: Melanoma, Uterine Cancer, Gallbladder Cancer, Bile Duct Cancer
Other relevant organs/diseases [2]: Pancreas, Ovary, Esophagus

146 (KLIDLSQVMYL; listed as Homo sapiens) [compound 146]
Other relevant organs/diseases [2]: Lung, Colon, Rectum, Pancreas, Ovary

SEQ ID NO.: 8 (GLASFKSFL; listed as Homo sapiens)
peptide was also found on (other cancers, not shown) [2]: prostate cancer, breast cancer, colon cancer, liver cancer, melanoma, ovarian cancer, esophageal cancer, pancreatic cancer, brain cancer, stomach cancer and lung cancer

95 (KLTDVGIATL; listed as Homo sapiens) [compound 95]
Additional Entities [2]: Melanoma, NHL

82 (SLLQATDFMSL; listed as Homo sapiens) [compound 82]
Additional Entities [2]: NSCLC, Brain Cancer, BRCA, Melanoma, Uterine Cancer, NHL, PC
Other relevant organs/diseases [2]: Colon, Rectum, Pancreas, Esophagus

84 (YLMDEGAHL; listed as Homo sapiens) [compound 84]
Additional Entities [2]: Gallbladder Cancer, Bile Duct Cancer
Other relevant organs/diseases [2]: Liver

SEQ ID NO.: 82 (SLLQATDFMSL; listed as Homo sapiens)
cancer tissues with peptide presentation (number of samples) [2]: 36
normal tissues with peptide presentation (number of samples) [2]: 4

147 (ALADKELLPSV; listed as Homo sapiens) [compound 147]
Other relevant organs/diseases [2]: Lung, Colon, Rectum, Liver, Pancreas, Melanoma, Ovary

SEQ ID NO.: 52 (SILDAVQRV; listed as Homo sapiens)
cancer tissues with peptide presentation (number of samples) [2]: 23

85 (FVMSEIRTV; listed as Homo sapiens) [compound 85]
Additional Entities [2]: Uterine Cancer, Gallbladder Cancer, Bile Duct Cancer
Other relevant organs/diseases [2]: Liver

SEQ ID NO.: 1 (ALIVSLPYL; listed as Homo sapiens)
peptide was also found on (other cancers, not shown) [2]: liver cancer

54 (ALVAKGLVQA; listed as Homo sapiens) [compound 54]
Additional Entities [2]: NHL
Other relevant organs/diseases [2]: Melanoma, Ovary

SEQ ID NO.: 135: peptide found in SLC16A3 (gene looked up) (VVDEGPTGV; listed as Homo sapiens)
cancer tissues with peptide presentation (number of samples) [2]: 77
normal tissues with peptide presentation (number of samples) [2]: 5

142 (SVDVSPPKV; listed as Homo sapiens) [compound 142]
Other relevant organs/diseases [2]: Lung, Pancreas, Melanoma, Esophagus

70 (SLTALRLLL; listed as Homo sapiens) [compound 70]
Peptide Presentation (presentation score) [1]: +

SEQ ID NO.: 38 (VLLDTILQL; listed as Homo sapiens)
cancer tissues with peptide presentation (number of samples) [2]: 67
normal tissues with peptide presentation (number of samples) [2]: 9

149 (SILTIEDGIFEV; listed as Homo sapiens) [compound 149]
Other relevant organs/diseases [2]: Lung, Brain, Colon, Rectum, Liver, Pancreas, Prostate, Leukocytes, Breast, Melanoma, Ovary

SEQ ID NO.: 103 (KLQDGLLHI; listed as Homo sapiens)
cancer tissues with peptide presentation (number of samples) [2]: 29

SEQ ID No.: 25 (LLVPAHLVAA; listed as Homo sapiens)
peptide was also found on (other cancers, not shown) [2]: pancreatic cancer, esophageal cancer, brain cancer, lung cancer and uterine cancer

19 (LLDPGSLQL; listed as Homo sapiens) [compound 19]
Peptide Presentation (presentation score) [1]: +

11 (FIQTEAPKEV; listed as Homo sapiens) [compound 11]
Peptide Presentation (presentation score) [1]: +++

118 (FLNAIETAL; listed as Homo sapiens) [compound 118]
Peptide Presentation (presentation score) [1]: +++

144 (RLLDVLAPLV; listed as Homo sapiens) [compound 144]
Other relevant organs/diseases [2]: Liver

SEQ ID NO.: 33 (FIADVVEKI; listed as Homo sapiens)
cancer tissues with peptide presentation (number of samples) [2]: 16

35 (VLHSLQTQL; listed as Homo sapiens) [compound 35]
Peptide Presentation (presentation score) [1]: +++

1 (ALIVSLPYL; listed as Homo sapiens) [compound 1]
Peptide Presentation (presentation score) [1]: +++

60 (ILWKDIEYV; listed as Homo sapiens) [compound 60]
Peptide Presentation (presentation score) [1]: +++

64 (LLAASVALA; listed as Homo sapiens) [compound 64]
Additional Entities [2]: Brain Cancer, AML

SEQ ID NO.: 12 (ALDPSGNQLI; listed as Homo sapiens)
peptide was also found on (other cancers, not shown) [2]: ovarian cancer, brain cancer, and lung cancer

76 (VLADDHLIEV; listed as Homo sapiens) [compound 76]
Additional Entities [2]: HCC, Gallbladder Cancer, Bile Duct Cancer

148 (KLLTEVHAA; listed as Homo sapiens) [compound 148]
Other relevant organs/diseases [2]: Lung, Stomach, Colon, Rectum, Liver, Pancreas, Breast, Ovary, Esophagus

58 (FLVDFEQSHL; listed as Homo sapiens) [compound 58]
Peptide Presentation (presentation score) [1]: ++

SEQ ID NO.: 39 (YLLNLNHLGL; listed as Homo sapiens)
cancer tissues with peptide presentation (number of samples) [2]: 19
normal tissues with peptide presentation (number of samples) [2]: 1

SEQ ID NO.: 128 (YLEEDVYQL; listed as Homo sapiens)
peptide was also found on (other cancers, not shown) [2]: pancreatic cancer, ovarian cancers, stomach cancer, and lung cancer

SEQ ID NO.: 98 (KIPPVSPSI; listed as Homo sapiens)
cancer tissues with peptide presentation (number of samples) [2]: 47
normal tissues with peptide presentation (number of samples) [2]: 4

9 (ILLQKPDSV; listed as Homo sapiens) [compound 9]
Peptide Presentation (presentation score) [1]: +++
